{"source": "patent US12534438B2", "about": "“Cannabinoid derivative as a pharmaceutically active compound and method of preparation thereof” (priority 2020, dated 2026)", "test_system": "mouse model of generalised seizure (tonic hind limb extensor convulsions)", "test": "Maximal electroshock seizure threshold (MEST) test in the mouse", "conditions": "diazepam 2.5 mg/kg i.p., 30 min post dose, current producing tonic hind limb extension in 50% of animals", "description": "The efficacy of the cannabinoid derivative according to formula (I) was tested in a mouse model of generalised seizure, the maximal electroshock seizure threshold (MEST) test.\nThe maximal electroshock seizure threshold (MEST) test is widely utilized preclinically to evaluate pro- or anti-convulsant properties of test compounds (Loscher et al., 1991).\nIn the MEST test the ability of a drug to alter the seizure threshold current required to induce hind limb tonic extensor convulsions is measured according to an “up and down” method of shock titration (Kimball et al., 1957). An increase in seizure threshold is indicative of anti-convulsant effect.\nThe ability of a test compound to alter the stimulus intensity, expressed as current (mA), required to induce the presence of tonic hind limb extensor convulsions, is assessed in the MEST.\nNaïve mice were acclimatised to the procedure room in their home cages for up to 7 days, with food and water available ad libitum.\nAll animals were weighed at the beginning of the study and randomly assigned to treatment groups based on a mean distribution of body weight across groups. […]\nTest compound effects were also calculated as percentage change in CC50 from the vehicle control group.\nSignificant difference between drug-treated animals and controls were assessed according to Litchfield and Wilcoxon (1949).", "data": [{"smiles": "CN1C(=O)CN=C(c2ccccc2)c2cc(Cl)ccc21", "note": "[Diazepam, diazepam, reference compound]", "values": [{"measurement": "CC50 +/- SEM", "result": "78.5 ± 1.0", "unit": "mA"}, {"measurement": "CC50 +/- SEM", "setting": "listed as diazepam", "result": 78.5, "unit": "mA"}]}]}
